This note sets out measurements from article PMC11567897.

Where a protein sequence is shown, tags need not be part of it. For some of these results: For at least one entry, the source does not settle the construct or the ends of the probe.

Data set [1] addresses T1, SNAP-Staufen (UniProt P25159).
T1 sequence (looked up, limits assumed): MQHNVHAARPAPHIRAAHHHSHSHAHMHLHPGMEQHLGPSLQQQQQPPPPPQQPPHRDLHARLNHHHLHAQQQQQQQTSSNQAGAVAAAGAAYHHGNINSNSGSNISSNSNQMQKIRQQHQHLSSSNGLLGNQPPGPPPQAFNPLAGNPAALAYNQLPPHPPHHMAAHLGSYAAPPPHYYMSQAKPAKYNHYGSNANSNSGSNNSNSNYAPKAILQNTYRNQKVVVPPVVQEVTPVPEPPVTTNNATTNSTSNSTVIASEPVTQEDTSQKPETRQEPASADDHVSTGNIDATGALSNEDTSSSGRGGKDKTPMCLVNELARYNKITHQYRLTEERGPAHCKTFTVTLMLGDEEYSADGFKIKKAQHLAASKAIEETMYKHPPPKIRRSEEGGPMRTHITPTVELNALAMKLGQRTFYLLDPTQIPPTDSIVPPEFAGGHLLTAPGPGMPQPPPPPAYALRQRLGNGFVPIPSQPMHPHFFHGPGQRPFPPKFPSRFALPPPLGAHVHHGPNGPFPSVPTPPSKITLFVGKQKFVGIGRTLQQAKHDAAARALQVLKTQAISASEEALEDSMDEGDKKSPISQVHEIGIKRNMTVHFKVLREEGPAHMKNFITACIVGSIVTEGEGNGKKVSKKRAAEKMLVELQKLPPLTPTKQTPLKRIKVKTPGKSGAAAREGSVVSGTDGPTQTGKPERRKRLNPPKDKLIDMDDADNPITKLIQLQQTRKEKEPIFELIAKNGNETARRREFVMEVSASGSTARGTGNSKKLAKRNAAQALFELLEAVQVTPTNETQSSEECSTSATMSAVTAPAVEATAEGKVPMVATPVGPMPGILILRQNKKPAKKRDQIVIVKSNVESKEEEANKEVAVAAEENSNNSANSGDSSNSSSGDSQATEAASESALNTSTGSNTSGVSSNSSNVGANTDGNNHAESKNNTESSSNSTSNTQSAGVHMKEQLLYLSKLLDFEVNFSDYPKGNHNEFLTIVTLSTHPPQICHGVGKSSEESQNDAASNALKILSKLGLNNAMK
Kind of data set: EMSA. Particulars: EMSA: 50 nM RNA, 20 mM Tris-HCl pH 7.5, 150 mM NaCl, 2 mM MgCl2, 5% glycerol, 0.5 mM TCEP, 20 min at room temperature; 0.8% agarose 0.5x TBE gel at 4 C; recombinant protein; protein details: SNAP; label: atto633 (amino-allyl UTP, 1:10); probe letters rebuilt from the primers and the genome.

Data set [2] addresses T2, Bruno-EGFP (BrunoFL-EGFP) (UniProt O02374).
T2 sequence (looked up): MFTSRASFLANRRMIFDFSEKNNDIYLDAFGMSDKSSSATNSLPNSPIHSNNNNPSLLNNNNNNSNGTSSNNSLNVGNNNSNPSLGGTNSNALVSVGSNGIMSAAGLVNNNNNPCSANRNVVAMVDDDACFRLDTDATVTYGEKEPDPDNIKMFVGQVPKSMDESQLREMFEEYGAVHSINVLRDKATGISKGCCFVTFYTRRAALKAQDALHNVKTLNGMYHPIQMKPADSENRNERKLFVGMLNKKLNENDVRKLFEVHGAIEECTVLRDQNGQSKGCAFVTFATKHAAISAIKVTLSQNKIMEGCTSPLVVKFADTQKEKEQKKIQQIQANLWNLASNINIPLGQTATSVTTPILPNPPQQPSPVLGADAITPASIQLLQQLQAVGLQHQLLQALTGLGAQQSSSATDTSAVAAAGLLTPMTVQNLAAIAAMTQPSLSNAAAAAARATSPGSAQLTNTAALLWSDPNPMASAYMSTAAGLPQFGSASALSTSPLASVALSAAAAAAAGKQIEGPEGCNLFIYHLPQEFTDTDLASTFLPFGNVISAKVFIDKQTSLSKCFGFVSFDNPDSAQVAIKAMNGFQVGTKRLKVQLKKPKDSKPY
Briefly: EMSA. Particulars: 2 mM Mg2+, EMSA: 50 nM RNA, 20 mM Tris-HCl pH 7.5, 150 mM NaCl, 2 mM MgCl2, 5% glycerol, 0.5 mM TCEP, 20 min at room temperature, 0.8% agarose 0.5x TBE gel at 4 C, recombinant protein, residues 1-604, label: atto633 (amino-allyl UTP, 1:10), probe letters rebuilt from the primers and the genome.

With “GGGUGGAAAAUUCGCUUGCACAAAAUCAACGCCGCGGCUGAUUUAUUAUUGAUGUGCUCAAGCAAAUUCA [WTOES (WT67)]”, the binding result in data set [1] is “binds”.
“GGGUGGAAAAUUCGCUUGCACAAAAUCAACGCCGCGGCUGAUUUAUUAUUGAUGUGCUCAAGCAAAUUCAAGUGAAGCAUUUGCGCGAUUUUCGUCUUUCUGUUUCCGUUUGCAAAAAAGUUUAUAAAAUGCUUACACUCUGCUGCAGACACGCCAACCGGAAGUGCGCACUAAGCGCUUGUUUGUAGCACAGUGUAGAAUUCUGGCGUAAUUUACAGCUCUACUUUAAAGUCUUCUAGAUAGCUAUCUACUAUUUAUAAACUUAUUUAUUGUCUUGAAUGUAUGUUAAUUGUAUGUAUUGAUGGUGAUCACGUUUUUUUUGUCCUAUAACAAGCUGCAAUGUAAAAUCCAAAAAAAAAAUG [WT359]”: the binding result in data set [2] was “binds”.
Regarding “GGGUGGAAAAUUCGCUUGCACAAAAUCAACGUUGCGGCUGAUUUAUUAUUGAUGUGCUCAAGCAAAUUCA [UUOES (UU67)]”, the binding result in data set [1] is on record as “binds”.
For the sequence “GGGUGGAAAAUUCGCUUGCACAAAAUCAACGUUGCGGCUGAUUUAUUAUUGAUGUGCUCAAGCAAAUUCAAGUGAAGCAUUUGCGCGAUUUUCGUCUUUCUGUUUCCGUUUGCAAAAAAGUUUAUAAAAUGCUUACACUCUGCUGCAGACACGCCAACCGGAAGUGCGCACUAAGCGCUUGUUUGUAGCACAGUGUAGAAUUCUGGCGUAAUUUACAGCUCUACUUUAAAGUCUUCUAGAUAGCUAUCUACUAUUUAUAAACUUAUUUAUUGUCUUGAAUGUAUGUUAAUUGUAUGUAUUGAUGGUGAUCACGUUUUUUUUGUCCUAUAACAAGCUGCAAUGUAAAAUCCAAAAAAAAAAUG [UU359]”, the binding result in data set [2] (fewer higher-order complexes than WT359) is listed as “binds”.
